Experimental data taken from PMC4200280.
Results are given in words; binding and its absence hold for the method and conditions named. In cells and extracts the contact can be indirect. Some binding calls cover weakened binding; strength is not graded here. Sequences can lack the tags named with a protein.

Protein sequences, listed by entry. Tags and fused reporters are not part of them.
UniProt P36012: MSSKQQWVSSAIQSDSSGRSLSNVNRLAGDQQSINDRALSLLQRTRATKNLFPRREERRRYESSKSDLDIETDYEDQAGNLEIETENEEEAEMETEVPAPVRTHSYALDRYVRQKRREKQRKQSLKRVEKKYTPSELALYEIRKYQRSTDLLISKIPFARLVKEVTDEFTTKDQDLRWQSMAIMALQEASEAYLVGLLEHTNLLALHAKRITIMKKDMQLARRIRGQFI

Experiments:
Psh1-HA (budding yeast) = target: T1, Psh1-HA (budding yeast) (UniProt Q12161); test: co-IP; lysates of Cse4-Myc/Psh1-HA strains, WT or cka2Δ; Psh1-HA precipitated, Cse4-Myc detected; control strain lacking Psh1-HA
T1 sequence: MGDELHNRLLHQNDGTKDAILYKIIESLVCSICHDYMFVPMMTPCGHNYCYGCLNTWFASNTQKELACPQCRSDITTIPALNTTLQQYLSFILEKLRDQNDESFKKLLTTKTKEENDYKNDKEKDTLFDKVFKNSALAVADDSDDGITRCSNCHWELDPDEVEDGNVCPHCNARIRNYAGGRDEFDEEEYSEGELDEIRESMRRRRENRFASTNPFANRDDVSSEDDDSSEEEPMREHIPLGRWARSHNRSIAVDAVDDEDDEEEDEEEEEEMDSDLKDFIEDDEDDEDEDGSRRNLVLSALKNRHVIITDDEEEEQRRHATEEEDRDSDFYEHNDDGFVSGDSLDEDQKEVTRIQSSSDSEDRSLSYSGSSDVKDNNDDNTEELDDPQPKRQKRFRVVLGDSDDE

[1] = target: Cse4 (overexpressed from the GAL promoter on a 2-μm plasmid) (budding yeast) (UniProt P36012); test: co-IP; cell lysates of strains overexpressing Cse4 from the GAL promoter; IP with anti-Cse4 antibody, Psh1-HA detected; control IP without antibody
[2] = target: T2, Ckb1-FLAG (budding yeast) (UniProt P43639); test: co-IP; whole cell extract; anti-FLAG IP of Ckb1-FLAG or Ckb2-FLAG, Psh1-HA detected by Western blot; 50 mM Tris pH 7.5, 150 mM NaCl, 0.1% Nonidet P-40, 4 °C
T2 sequence: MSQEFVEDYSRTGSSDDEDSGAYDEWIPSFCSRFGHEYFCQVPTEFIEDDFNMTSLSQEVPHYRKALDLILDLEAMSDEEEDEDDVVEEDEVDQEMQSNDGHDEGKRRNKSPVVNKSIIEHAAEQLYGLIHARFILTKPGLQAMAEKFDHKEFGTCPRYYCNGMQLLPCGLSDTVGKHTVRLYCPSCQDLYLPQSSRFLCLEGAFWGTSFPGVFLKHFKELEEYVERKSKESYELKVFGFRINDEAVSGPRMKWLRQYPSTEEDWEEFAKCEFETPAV

[3] = target: T3, Ckb2-FLAG (budding yeast) (UniProt P38930); test: as above
T3 sequence: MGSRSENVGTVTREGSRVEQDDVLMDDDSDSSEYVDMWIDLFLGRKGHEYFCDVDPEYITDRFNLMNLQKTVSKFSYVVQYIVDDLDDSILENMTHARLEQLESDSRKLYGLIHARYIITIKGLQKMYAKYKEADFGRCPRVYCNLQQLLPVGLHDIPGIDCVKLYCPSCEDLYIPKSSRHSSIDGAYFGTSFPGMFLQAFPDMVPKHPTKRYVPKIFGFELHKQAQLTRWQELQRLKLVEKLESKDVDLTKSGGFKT

[4] = target: T4, Ubc3-TAP (budding yeast), P14682; test: co-IP; lysates of Ubc3-TAP/Psh1-HA strains, WT or cka2Δ; Ubc3-TAP precipitated, Psh1-HA detected; control strain lacking Ubc3-TAP; conditions: remark: other sources report otherwise
T4 chain: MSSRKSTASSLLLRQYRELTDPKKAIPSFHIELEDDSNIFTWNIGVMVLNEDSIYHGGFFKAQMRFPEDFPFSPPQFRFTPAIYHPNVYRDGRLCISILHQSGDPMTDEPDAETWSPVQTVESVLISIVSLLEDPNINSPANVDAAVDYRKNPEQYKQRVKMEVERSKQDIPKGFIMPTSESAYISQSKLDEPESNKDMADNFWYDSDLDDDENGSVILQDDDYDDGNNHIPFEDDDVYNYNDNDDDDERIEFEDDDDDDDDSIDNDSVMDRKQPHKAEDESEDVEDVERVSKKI

## Cse4-Myc (from UniProt P36012 1-229)
Psh1-HA (budding yeast)
  binding: binds

B1: Psh1-HA (enzyme, UniProt Q12161 1-406)
chain: MGDELHNRLLHQNDGTKDAILYKIIESLVCSICHDYMFVPMMTPCGHNYCYGCLNTWFASNTQKELACPQCRSDITTIPALNTTLQQYLSFILEKLRDQNDESFKKLLTTKTKEENDYKNDKEKDTLFDKVFKNSALAVADDSDDGITRCSNCHWELDPDEVEDGNVCPHCNARIRNYAGGRDEFDEEEYSEGELDEIRESMRRRRENRFASTNPFANRDDVSSEDDDSSEEEPMREHIPLGRWARSHNRSIAVDAVDDEDDEEEDEEEEEEMDSDLKDFIEDDEDDEDEDGSRRNLVLSALKNRHVIITDDEEEEQRRHATEEEDRDSDFYEHNDDGFVSGDSLDEDQKEVTRIQSSSDSEDRSLSYSGSSDVKDNNDDNTEELDDPQPKRQKRFRVVLGDSDDE
[1]
  binding: binds
[2]
  binding: binds
[3]
  binding: binds

B2: Psh1-S8A/T2A-HA (enzyme, UniProt Q12161 1-406)
chain: MGDELHNRLLHQNDGTKDAILYKIIESLVCSICHDYMFVPMMTPCGHNYCYGCLNTWFASNTQKELACPQCRSDITTIPALNTTLQQYLSFILEKLRDQNDESFKKLLTTKTKEENDYKNDKEKDTLFDKVFKNSALAVADDADDGITRCSNCHWELDPDEVEDGNVCPHCNARIRNYAGGRDEFDEEEYAEGELDEIRESMRRRRENRFASTNPFANRDDVSSEDDDAAEEEPMREHIPLGRWARSHNRSIAVDAVDDEDDEEEDEEEEEEMDADLKDFIEDDEDDEDEDGSRRNLVLSALKNRHVIIADDEEEEQRRHATEEEDRDSDFYEHNDDGFVAGDALDEDQKEVTRIQSSSDSEDRSLSYSGSSDVKDNNDDNAEELDDPQPKRQKRFRVVLGDADDE
[1]
  binding: binds

B3: Psh1-HA, Q12161 1-406 (enzyme)
chain: MGDELHNRLLHQNDGTKDAILYKIIESLVCSICHDYMFVPMMTPCGHNYCYGCLNTWFASNTQKELACPQCRSDITTIPALNTTLQQYLSFILEKLRDQNDESFKKLLTTKTKEENDYKNDKEKDTLFDKVFKNSALAVADDSDDGITRCSNCHWELDPDEVEDGNVCPHCNARIRNYAGGRDEFDEEEYSEGELDEIRESMRRRRENRFASTNPFANRDDVSSEDDDSSEEEPMREHIPLGRWARSHNRSIAVDAVDDEDDEEEDEEEEEEMDSDLKDFIEDDEDDEDEDGSRRNLVLSALKNRHVIITDDEEEEQRRHATEEEDRDSDFYEHNDDGFVSGDSLDEDQKEVTRIQSSSDSEDRSLSYSGSSDVKDNNDDNTEELDDPQPKRQKRFRVVLGDSDDE
[4]
  binding: binds
